Test results reported in the supplement of paper PMC12067093, “Discovery and optimisation of a covalent ligand for TRIM25 and its application to targeted protein ubiquitination” (Chemical Science, 2025).
The list shows a part of the results.

Compound: Cc1cc(ccc1-c1ccccc1)C(=O)N1CCCN(CC1)C(=O)CCl [compound 10]
Assay: probe-labelled cysteine peptide fold change vs DMSO (competition) (log2 fold change); higher = less target engagement (more negative = stronger competition)
Settings: THP-1, incubation time: 4 h
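Note: competitive profiling in live THP-1 cells: cysteine peptides tagged with an iodoacetamide desthiobiotin (IA-DTB) probe, intensity after compound treatment relative to DMSO-treated cells.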

| Target | probe-labelled cysteine peptide fold change (10 µM) | probe-labelled cysteine peptide fold change (50 µM) |
| --- | --- | --- |
| IPO7_O95373_484_ACWVLHYFCEVK (UniProt O95373) | 0.00704 | 0.576 |
| ITGB1_P05556_301_LGGIVLPNDGQCHLENNMYTMSHYYDYPSIAHLVQK (UniProt P05556) | -0.126 | 0.0542 |
| INTS1_Q8N201_867_LGHLLCR (UniProt Q8N201) | 0.132 | -0.179 |
| IRF2BP1_Q8IU81_239_EQLLALSACAPFNVR (UniProt Q8IU81) | 0.0472 | -0.0907 |
| INTS12_Q96CB8_209_LVWYCAR (UniProt Q96CB8) | -0.328 | -0.762 |
| ISL2_Q96A47_114_DSVYHIECFR (UniProt Q96A47) | 0.0851 | 0.0295 |
| ITGB2_P05107_670_DSEGCWVAYTLEQQDGMDR (UniProt P05107) | -0.256 | -0.12 |
| IRAK4_Q9NWZ3_13_CLNVGLIR (UniProt Q9NWZ3) | -0.0281 | -0.494 |
| ITGB5_P18084_602_DGQICSER (UniProt P18084) | -0.826 | 0.567 |
| INTS3_Q68E01_866_PCHPDDQFTTSILR (UniProt Q68E01) | -0.261 | 0.0472 |
| ITGB2_P05107_400_GDCDGVQINVPITFQVK (UniProt P05107) | -0.218 | -0.0527 |
| IPO4_Q8TEX9_42_APAALPALCDLLASAADPQIR (UniProt Q8TEX9) | -0.0477 | -0.0791 |
| ITPK1_Q13572_391+403_LGCNAGVSPSFQQHCVASLATK (UniProt Q13572) | -0.19 | -0.599 |
| IRF5_Q13568_44_KLFCIPWR (UniProt Q13568) | -0.151 | -0.786 |
| IREB2_P48200_720_CPSFFDK (UniProt P48200) | -0.287 | -0.168 |
| INTS13_Q9NVM9_494_ESLTEEDVLNCQK (UniProt Q9NVM9) | 0.156 | -0.139 |
| IPO7_O95373_736_KVLTGVAGEDAECHAAK (UniProt O95373) | -0.142 | -0.403 |
| IPO11_Q9UI26_252_QFLECSR (UniProt Q9UI26) | -0.0351 | 0.553 |
| IPO4_Q8TEX9_574_AVGEPMRPLAEECCQLGLGLCDQVDDPDLRR (UniProt Q8TEX9) | -0.0205 | -0.66 |
| IPO8_O15397_827_IQLPHNPGPITVQFINQWMNDTDCFLGHHDR (UniProt O15397) | 0.203 | 0.407 |
| IRAK3_Q9Y616_532_RNEEACNMPSSSCEESWFPK (UniProt Q9Y616) | 0.102 | -0.354 |

As a short view, some entries already given.

| Target | probe-labelled cysteine peptide fold change (10 µM) | probe-labelled cysteine peptide fold change (50 µM) |
| --- | --- | --- |
| IPO7_O95373_484_ACWVLHYFCEVK (UniProt O95373) | 0.00704 | 0.576 |
| ITGB1_P05556_301_LGGIVLPNDGQCHLENNMYTMSHYYDYPSIAHLVQK (UniProt P05556) | -0.126 | 0.0542 |
| INTS1_Q8N201_867_LGHLLCR (UniProt Q8N201) | 0.132 | -0.179 |
| IRF2BP1_Q8IU81_239_EQLLALSACAPFNVR (UniProt Q8IU81) | 0.0472 | -0.0907 |
| INTS12_Q96CB8_209_LVWYCAR (UniProt Q96CB8) | -0.328 | -0.762 |
| ISL2_Q96A47_114_DSVYHIECFR (UniProt Q96A47) | 0.0851 | 0.0295 |
| ITGB2_P05107_670_DSEGCWVAYTLEQQDGMDR (UniProt P05107) | -0.256 | -0.12 |
| IRAK4_Q9NWZ3_13_CLNVGLIR (UniProt Q9NWZ3) | -0.0281 | -0.494 |
| ITGB5_P18084_602_DGQICSER (UniProt P18084) | -0.826 | 0.567 |
| INTS3_Q68E01_866_PCHPDDQFTTSILR (UniProt Q68E01) | -0.261 | 0.0472 |
| ITGB2_P05107_400_GDCDGVQINVPITFQVK (UniProt P05107) | -0.218 | -0.0527 |
| IPO4_Q8TEX9_42_APAALPALCDLLASAADPQIR (UniProt Q8TEX9) | -0.0477 | -0.0791 |
| ITPK1_Q13572_391+403_LGCNAGVSPSFQQHCVASLATK (UniProt Q13572) | -0.19 | -0.599 |
| IRF5_Q13568_44_KLFCIPWR (UniProt Q13568) | -0.151 | -0.786 |
| IREB2_P48200_720_CPSFFDK (UniProt P48200) | -0.287 | -0.168 |
| INTS13_Q9NVM9_494_ESLTEEDVLNCQK (UniProt Q9NVM9) | 0.156 | -0.139 |
| IPO7_O95373_736_KVLTGVAGEDAECHAAK (UniProt O95373) | -0.142 | -0.403 |
| IPO11_Q9UI26_252_QFLECSR (UniProt Q9UI26) | -0.0351 | 0.553 |
| IPO4_Q8TEX9_574_AVGEPMRPLAEECCQLGLGLCDQVDDPDLRR (UniProt Q8TEX9) | -0.0205 | -0.66 |
| IPO8_O15397_827_IQLPHNPGPITVQFINQWMNDTDCFLGHHDR (UniProt O15397) | 0.203 | 0.407 |

Next records follow:

| Target | probe-labelled cysteine peptide fold change (10 µM) | probe-labelled cysteine peptide fold change (50 µM) |
| --- | --- | --- |
| IRAK3_Q9Y616_399_RGLDSCLSFLDK (UniProt Q9Y616) | 0.0279 | -0.0603 |
| IPO4_Q8TEX9_269_ILCCLTFLVK (UniProt Q8TEX9) | -0.534 | 0.0198 |
| ITGB3BP_Q13352_127_ELENLIGISCASHFLK (UniProt Q13352) | 0.459 | 0.327 |
| ISG20L2_Q9H9L3_295_ADCPENATMSLK (UniProt Q9H9L3) | 0.0819 | 0.17 |
| IPO11_Q9UI26_894_DCMLMSHLEEPKVTEDEEPPTEQDKR (UniProt Q9UI26) | -0.311 | -0.572 |
| IRF2BP2_Q7Z5L9_16+19_QSCYLCDLPR (UniProt Q7Z5L9) | -0.215 | -0.511 |
| ITGA5_P08648_911+916_CPEAECFR (UniProt P08648) | -0.467 | -0.188 |
| INTS3_Q68E01_959_QNFFSQTPILQALQHVQASCDEAHK (UniProt Q68E01) | -0.123 | -0.0115 |
| IPO9_Q96P70_639_ELSQIEACQGPMQMR (UniProt Q96P70) | 0.0381 | -0.0191 |
| IPO5_O00410_1057_IFSIIAEGEMHEAIKHEDPCAKR (UniProt O00410) | -0.391 | -1.01 |
| INTS6L_Q5JSJ4_745_NCSLSVDDQK (UniProt Q5JSJ4) | -0.173 | 0.108 |
| INTS1_Q8N201_1833_VPVPEVLLHSEGAASSSVCK (UniProt Q8N201) | -0.199 | -0.262 |
| IRAK1_P51617_608_SWHLTPSCPLDPAPLR (UniProt P51617) | 0.188 | 0.076 |
| INTS12_Q96CB8_182_QMMVASGNQLVECQECHNLYHR (UniProt Q96CB8) | 0.0207 | 0.454 |
| INTS3_Q68E01_80_EANDALNAYVCK (UniProt Q68E01) | 0.0623 | -0.112 |
| IQGAP1_P46940_45_QNVAYEYLCHLEEAK (UniProt P46940) | 0.176 | 0.235 |
| IQSEC2_Q5JU85_821_DVLDCVVDEMDFSSMDLDDALRK (UniProt Q5JU85) | 0.153 | 0.0906 |
| INTS9_Q9NV88_471_EVQPLHVVCPEQYTQPPPAQSHR (UniProt Q9NV88) | -0.0282 | -0.0888 |
| ITGB2_P05107_472_CDTGYIGK (UniProt P05107) | 0.101 | -0.117 |
| INTS2_Q9H0H0_722_LLATNYPHLCIVDDWICEEEITGTDALLRR (UniProt Q9H0H0) | -0.0727 | -0.174 |
| ISG20L2_Q9H9L3_184_MVAIDCEMVGTGPK (UniProt Q9H9L3) | 0.53 | 0.466 |

| Target | probe-labelled cysteine peptide fold change (10 µM) | probe-labelled cysteine peptide fold change (50 µM) |
| --- | --- | --- |
| INTS5_Q6P9B9_485_NHVGELCGETLR (UniProt Q6P9B9) | 0.0512 | 0.00468 |
| IRF2BP2_Q7Z5L9_65_RAHGCFPEGR (UniProt Q7Z5L9) | -0.022 | -0.22 |
| IPO7_O95373_757_GIDQCIPLFVEAALER (UniProt O95373) | -0.699 | 0.299 |
| INTS7_Q9NVH2_352_LAQECCYHNNR (UniProt Q9NVH2) | -0.185 | 0.117 |
| INSR_P06213_462_LCLSEIHK (UniProt P06213) | -0.0622 | 0.0658 |
| INTS13_Q9NVM9_349_ISPVDVNSRPSSCLTNFLLNGR (UniProt Q9NVM9) | -0.00496 | -0.66 |
| ITPK1_Q13572_185_VAHGTNSHEMAIVFNQEGLNAIQPPCVVQNFINHNAVLYK (UniProt Q13572) | 0.199 | 0.389 |
| INTS14_Q96SY0_464_GVADMLERECTLLPETAHPDAAFQLTHAAQQLK (UniProt Q96SY0) | 0.0283 | -0.313 |
| IRF2BP1_Q8IU81_363_EPAPAEALPQQYPEPAPAALCGPPPR (UniProt Q8IU81) | -0.287 | 0.257 |
| ITPA_Q9BY32_57_CQEAVR (UniProt Q9BY32) | 0.0513 | 0.0275 |
| INTS13_Q9NVM9_178_MLEDCVQETIHEHNK (UniProt Q9NVM9) | 0.0728 | -0.081 |
| IP6K1_Q92551_275_VCGMQVYQLDTGHYLCR (UniProt Q92551) | -0.0724 | -0.0929 |
| IRF2BP2_Q7Z5L9_549_QQGASGEVYCPSGEK (UniProt Q7Z5L9) | 0.0971 | -0.352 |
| IRF2BP2_Q7Z5L9_506_EVGGQGAGNTGGLEPVHPASLPDSSLATSAPLCCTLCHER (UniProt Q7Z5L9) | 0.164 | 0.216 |
| ISY1_Q9ULR0_36_RPFLASECTELPK (UniProt Q9ULR0) | 0.119 | 0.176 |
| IQGAP1_P46940_45_QNVAYEYLCHLEEAKR (UniProt P46940) | 0.0748 | -0.0751 |
| IPO5_O00410_110_VCDIAAELAR (UniProt O00410) | -0.0382 | 0.102 |
| IQGAP1_P46940_45_RQNVAYEYLCHLEEAK (UniProt P46940) | 0.214 | 0.272 |
| INTS4_Q96HW7_44_SAALHIDLCK (UniProt Q96HW7) | -0.0901 | 0.0949 |
| IPO5_O00410_266_LCGDTSLNNMQR (UniProt O00410) | -0.215 | 0.193 |
| INTS5_Q6P9B9_183_VPHATGALNELLQLWMGCR (UniProt Q6P9B9) | -0.488 | 0.369 |

| Target | probe-labelled cysteine peptide fold change (10 µM) | probe-labelled cysteine peptide fold change (50 µM) |
| --- | --- | --- |
| INSR_P06213_1083_GFTCHHVVR (UniProt P06213) | 0.1 | 0.329 |
| IREB2_P48200_178_GSCDSGELGR (UniProt P48200) | -0.299 | -0.721 |
| INTS7_Q9NVH2_374_VLTNITVSCQEK (UniProt Q9NVH2) | 0.217 | -0.0134 |
| INTS10_Q9NVR2_7_SAQGDCEFLVQR (UniProt Q9NVR2) | -0.0551 | -0.821 |
| INTS10_Q9NVR2_502_ALIQLATCHFALGEYR (UniProt Q9NVR2) | 0.0798 | 0.27 |
| IRF2BP1_Q8IU81_36_GCVNFEGADR (UniProt Q8IU81) | -0.00612 | -0.122 |
| IPMK_Q8NFU5_373_VFYHLPTGCQEIAEVEVR (UniProt Q8NFU5) | 0.0977 | -0.316 |
| IREB2_P48200_467_SDFQACLNEK (UniProt P48200) | -0.164 | 0.111 |
| INPPL1_O15357_405_EAFCQLLQLMK (UniProt O15357) | -0.0354 | 0.0749 |
| INTS13_Q9NVM9_202_CELVLIHTYPVGEDSLVSDR (UniProt Q9NVM9) | 0.128 | 0.231 |
| INTS13_Q9NVM9_331_TNNIELHYCTGAYR (UniProt Q9NVM9) | 0.129 | 0.319 |
| IPO13_O94829_848_CGEVESVGK (UniProt O94829) | -0.193 | -0.0957 |
| IPO7_O95373_90_NMITQYWPDRETAPGDISPYTIPEEDRHCIR (UniProt O95373) | -0.111 | -0.187 |
| INTS14_Q96SY0_171_LYIMCMANLEELQSTDSLECLER (UniProt Q96SY0) | 0.0485 | 0.0438 |
| ISG15_P05161_78_CDEPLSILVR (UniProt P05161) | 0.253 | 0.838 |
| INTS13_Q9NVM9_560_VLECLMACR (UniProt Q9NVM9) | 0.0497 | -0.385 |
| INTS5_Q6P9B9_245_VLSCGLK (UniProt Q6P9B9) | -0.277 | -0.364 |
| ITGB1_P05556_555_FCECDNFNCDR (UniProt P05556) | 0.0306 | -0.204 |
| IPO5_O00410_986_FKPDCVNVEEVLPHWLSWLPLHEDK (UniProt O00410) | 0.126 | 0.482 |
| IPO4_Q8TEX9_870_QGCTVAEK (UniProt Q8TEX9) | 0.0277 | -0.207 |
| IRF2BP1_Q8IU81_518_LEDTHFVQCPSVPGHK (UniProt Q8IU81) | 0.00562 | -0.0476 |
